Measured values reported in patent US10111431B2, “Application of biofilm formation inhibiting compounds enhances control of citrus canker” (priority 2013, dated 2018).
Some of these results come from one statement about several compounds together.

Test system: Xac 306 on grapefruit leaves
Assay: Plant test in greenhouse, spray inoculation of grapefruit leaves
Type: in vivo, Xanthomonas citri subsp. citri
Details: alone or in combination; grapefruit leaves after spray inoculation
Experimental: The effect of selected biofilm inhibitors on Xac infection/virulence-was investigated using 20-week-old potted grapefruit (Citrus paradise cv. Duncan grapefruit) plants in a quarantine greenhouse at the Citrus Research and Education Center, Lake Alfred, Fla. Copper (CuSO4, 100 μg/mL), D-leucine (10 mM), IAN (100 μg/mL) and a combination of these compounds were individually prepared in 100 ml of SDW. Bacterial inoculum was prepared by growing Xac 306 on NA plates at 28° C. for 48 h, suspending in SDW, adjusting concentration to approximately OD600=0.3 (5×10^8 CFU/mL). The inoculation was performed by a spray method as described previously (Li and Wang, 2012) with modifications. Briefly, the abaxial surfaces of fully expanded, immature leaves of each plant were sprayed with the following treatments: SDW, Xac 306, and Xac 306 combined with CuSO4 (100 μg/mL), D-leucine (10 mM), IAN (100 μg/mL), or a combination of these compounds. Silwett-L77 (silicone-polyether copolymer, Fisher) was added to each treatment at a 0.03% (V/V) final concentration. […]
For bacterial population assays, the leaves of grapefruit plants were inoculated as described above. […] After incubation at 28° C. for 48 h, bacterial colonies were counted and the number of CFU per square centimeter of leaf tissue was calculated. […]

`CC(C)C[C@@H](N)C(=O)O` [D-leucine] was tested, and the “decrease in CFU/mm^2 leaf tissue compared to untreated control” value was 10 to 100 fold.
